Experimental data published in patent US20220106406A1 (UNIVERSITY OF KENTUCKY RESEARCH FOUNDATION, published 2022).
Changes are numbered by the printed parent chain. Results are given in words; binding and its absence hold for the method and conditions named. Some binding calls cover weakened binding; strength is not graded here.

Chains of the proteins cited; added tags and fusions are not shown. Lines headed by an entry give the natural chain unless they say otherwise; changes in a name come on top. Residues count along the entry.
UniProt O75365: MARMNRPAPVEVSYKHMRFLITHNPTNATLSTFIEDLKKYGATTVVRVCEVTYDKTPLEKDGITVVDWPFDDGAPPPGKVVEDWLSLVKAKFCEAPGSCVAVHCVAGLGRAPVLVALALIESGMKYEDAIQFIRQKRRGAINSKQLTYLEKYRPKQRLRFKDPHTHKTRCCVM
3×FLAG-PRL-3: residues 1-170 of O75365

B1: NB4 (VHH)
VHH: QVQLQESGGGLVQTGGSLRLSCAASQSTYNFDVMGWYRLAPGKQREFLTSITNGGNIYYADSVKGRFTIARDDSKTTMYLEMNSLKPEDTAVYTCYGQTHKPRVTTSWGQGTQVTVSS
B2: NB10 (VHH)
VHH: B1 VHH with Y29F, D32N, T49P, I51L, M78T
notes: Alpaca nanobody, C-terminal 6xHis tag intact; also called nanobody 10
B3: NB16 (VHH)
VHH: B1 VHH with Y29F, I69T
B4: NB19 (VHH)
VHH: QVQLQESGGGLVQAGGSLGLSCAASRSIFNFKVMGWYRQAPGKQRELVASITNSDNTYYADSVKGRFTISREDAKTTMYLEMNSLKPEDTAVYRCYGQNWGLRATTYWGQGTQVTVSS
B5: NB84 (VHH)
VHH: B4 VHH with A91T
B6: NB26 (VHH)
VHH: QVQLQESGGGLVQPGGSLKLSCVVTGLHYYTEGWFRQAPGKEREGVSCISSSDGRTDYIDSVKGRFTISEDNDNKTVYLQMNTLKPDDTGVYYCVAERGPRGSTWWETYDYWGQGTHVTVSS
notes: Alpaca nanobody, C-terminal 6xHis tag intact; also called nanobody 26; Nanobody 26
B7: NB90 (VHH)
VHH: B1 VHH with Y29F
B8: NB7 (VHH)
VHH: B1 VHH with Y29F, D32Y, M34L
B9: NB18 (VHH)
VHH: B1 VHH with Y29F, I69T
B10: NB29 (VHH)
VHH: B1 VHH
B11: NB92 (VHH)
VHH: QVQLQESGGGLVHTGGSLILSCAASRSFFIFDVMGWYRQAPGNHREFVTSITNGGNVYYVDSVKGRFNIPKDDSNTTMYLEMNSLKPEDTAVYTCYGQIHKPRVTTSWGQGTQVTVSS
B12: NB68 (VHH)
VHH: QVQLQESGGGLVQAGGSLRLSCSASGRTSSMYAMGWFRQAPGKEREFVAGIRWSVGTTSYADSVKGRFTISRDNAENTVYLDMNALKSEDTAMYYCTNDSGRPRSQGTQVTVSS
B13: NB13 (VHH)
VHH: B1 VHH with Y29F

Target: GFP-PRL-3 (UniProt O75365)
Assay: immunofluorescence on fixed, permeabilized transfected HCT116 cells

| Binder | binding |
| --- | --- |
| B1 | binds |
| B2 | binds |
| B3 | binds |
| B4 | binds |
| B5 | binds |
| B6 | binds |

Target: Recombinant PRL-3 (human) (UniProt O75365)
Assay: indirect ELISA, PRL coated, anti-His-HRP detection

| Binder | binding |
| --- | --- |
| B1 | binds |
| B7 | binds |
| B8 | binds |
| B2 | binds |
| B3 | binds |
| B9 | binds |
| B10 | binds |
| B4 | binds |
| B5 | binds |
| B11 | binds |
| B6 | binds |
| B12 | binds |
| B13 | binds |

Target: 3×FLAG-PRL-3 (human) (UniProt O75365)
Assay: immunoprecipitation from HEK293T lysate with nanobody-coupled Dynabeads, anti-FLAG blot

| Binder | binding |
| --- | --- |
| B1 | binds |
| B2 | binds |
| B3 | binds |
| B4 | binds |
| B5 | binds |
| B6 | binds |

Target: Recombinant PRL-3 (human) (UniProt O75365)
Assay: indirect ELISA, 100 ng PRL coated, anti-His detection, 450 nm

| Binder | binding |
| --- | --- |
| B1 | binds |
| B7 | binds |
| B8 | binds |
| B2 | binds |
| B3 | binds |
| B9 | binds |
| B10 | binds |
| B4 | binds |
| B5 | binds |
| B11 | binds |
| B6 | binds |
| B12 | binds |
| B13 | binds |

Target: Recombinant PRL-3 (human) (UniProt O75365)
Assay: summary of ELISA, immunoprecipitation and immunofluorescence

| Binder | binding |
| --- | --- |
| B1 | binds |
| B2 | binds |
| B3 | binds |
| B4 | binds |
| B5 | binds |
| B6 | binds |

Target: Recombinant PRL-3 (human) (UniProt O75365)
Assay: hydrogen-deuterium exchange

| Binder | binding |
| --- | --- |
| B4 | binds |
| B6 | binds |
